# Results taken from the M2OR odorant receptor database.
# Amino acid sequences for entries named in this document (tags omitted). Chains listed by the source or under a name are the forms on record and can include a tag or linker.
# UniProt E9Q891, as listed by the source: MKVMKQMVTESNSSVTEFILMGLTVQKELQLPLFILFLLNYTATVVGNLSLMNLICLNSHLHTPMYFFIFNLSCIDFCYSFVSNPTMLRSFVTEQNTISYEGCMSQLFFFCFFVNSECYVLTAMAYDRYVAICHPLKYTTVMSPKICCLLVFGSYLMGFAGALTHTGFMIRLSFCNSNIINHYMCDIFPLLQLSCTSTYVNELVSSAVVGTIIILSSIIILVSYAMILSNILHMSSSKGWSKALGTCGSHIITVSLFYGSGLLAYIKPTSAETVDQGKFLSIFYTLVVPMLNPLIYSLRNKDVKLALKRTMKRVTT
# UniProt K7N5T5, as listed by the source: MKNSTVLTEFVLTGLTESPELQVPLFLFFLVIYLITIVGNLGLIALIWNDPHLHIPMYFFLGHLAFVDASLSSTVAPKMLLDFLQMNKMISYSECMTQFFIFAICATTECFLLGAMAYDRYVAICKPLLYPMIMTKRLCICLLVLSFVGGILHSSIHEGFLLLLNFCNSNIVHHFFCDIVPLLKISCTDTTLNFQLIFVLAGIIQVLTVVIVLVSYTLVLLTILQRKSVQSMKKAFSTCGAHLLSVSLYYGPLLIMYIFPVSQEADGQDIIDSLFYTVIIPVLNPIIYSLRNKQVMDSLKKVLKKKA
# UniProt L7N1Y8, as listed by the source: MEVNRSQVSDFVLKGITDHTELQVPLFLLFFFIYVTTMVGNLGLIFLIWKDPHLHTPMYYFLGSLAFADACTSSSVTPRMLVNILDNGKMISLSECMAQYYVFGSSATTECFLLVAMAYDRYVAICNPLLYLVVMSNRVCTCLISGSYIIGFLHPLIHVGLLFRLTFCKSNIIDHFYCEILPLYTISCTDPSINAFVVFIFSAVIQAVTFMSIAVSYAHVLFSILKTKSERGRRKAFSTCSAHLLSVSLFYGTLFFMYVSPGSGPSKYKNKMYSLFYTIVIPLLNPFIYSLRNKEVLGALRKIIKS
# UniProt E9QAT7, as listed by the source: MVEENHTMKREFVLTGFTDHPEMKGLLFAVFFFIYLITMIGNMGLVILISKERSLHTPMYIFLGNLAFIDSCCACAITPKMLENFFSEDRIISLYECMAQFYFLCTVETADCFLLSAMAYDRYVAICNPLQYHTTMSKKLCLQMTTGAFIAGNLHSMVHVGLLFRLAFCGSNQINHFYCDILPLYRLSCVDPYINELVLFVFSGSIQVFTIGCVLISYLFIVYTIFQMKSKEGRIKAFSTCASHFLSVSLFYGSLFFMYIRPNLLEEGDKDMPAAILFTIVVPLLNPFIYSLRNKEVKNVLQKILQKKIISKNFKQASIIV
# UniProt L7N0P5, as listed by the source: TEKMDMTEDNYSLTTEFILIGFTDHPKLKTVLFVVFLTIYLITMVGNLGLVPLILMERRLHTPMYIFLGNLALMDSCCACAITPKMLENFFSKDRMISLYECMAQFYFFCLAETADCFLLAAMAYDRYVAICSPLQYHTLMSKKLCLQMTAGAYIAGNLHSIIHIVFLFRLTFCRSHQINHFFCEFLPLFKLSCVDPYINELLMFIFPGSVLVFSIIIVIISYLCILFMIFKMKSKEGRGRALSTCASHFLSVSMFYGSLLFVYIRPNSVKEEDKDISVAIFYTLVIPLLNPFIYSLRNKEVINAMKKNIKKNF
# Only a part is listed here, and it is no random draw. Calls are pooled over several reports, among them a noisy single-well screen. The list shows a part of the results.
# Experiments:
# Conditions in all cases: stereoisomer not certain
# [1] = target: T1, UniProt E9Q6Z7
# T1 sequence (whole entry): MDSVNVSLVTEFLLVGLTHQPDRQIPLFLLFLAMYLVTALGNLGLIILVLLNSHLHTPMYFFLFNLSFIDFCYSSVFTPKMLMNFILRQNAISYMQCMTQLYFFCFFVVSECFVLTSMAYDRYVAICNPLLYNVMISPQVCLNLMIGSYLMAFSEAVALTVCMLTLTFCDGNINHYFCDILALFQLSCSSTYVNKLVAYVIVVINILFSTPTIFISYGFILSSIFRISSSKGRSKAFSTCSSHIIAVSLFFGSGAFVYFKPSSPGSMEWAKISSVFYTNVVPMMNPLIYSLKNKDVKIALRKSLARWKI
# Procedure, shortened: (§1)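 Each entry records the cell line, G-protein, co-transfected protein and tags used. Methods varied with the source, often transient luciferase assays in mammalian cell lines. A receptor–molecule pair is called responsive (active) if the original authors judged its signal statistically different from baseline and non-responsive (inactive) otherwise.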
# [2] = target: T2, UniProt K7N609
# T2 sequence (whole entry): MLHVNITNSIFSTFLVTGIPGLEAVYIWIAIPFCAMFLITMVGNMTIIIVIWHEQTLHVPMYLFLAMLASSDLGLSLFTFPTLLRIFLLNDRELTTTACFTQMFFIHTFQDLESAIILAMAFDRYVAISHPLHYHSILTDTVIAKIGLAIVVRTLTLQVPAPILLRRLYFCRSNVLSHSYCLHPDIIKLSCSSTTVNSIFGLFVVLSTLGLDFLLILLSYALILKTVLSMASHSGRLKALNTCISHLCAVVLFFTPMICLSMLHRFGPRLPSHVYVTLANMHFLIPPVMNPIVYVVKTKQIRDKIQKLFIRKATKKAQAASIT
# Procedure, shortened: as §1
# [3] = target: T3, UniProt L7MU75
# T3 sequence (whole entry): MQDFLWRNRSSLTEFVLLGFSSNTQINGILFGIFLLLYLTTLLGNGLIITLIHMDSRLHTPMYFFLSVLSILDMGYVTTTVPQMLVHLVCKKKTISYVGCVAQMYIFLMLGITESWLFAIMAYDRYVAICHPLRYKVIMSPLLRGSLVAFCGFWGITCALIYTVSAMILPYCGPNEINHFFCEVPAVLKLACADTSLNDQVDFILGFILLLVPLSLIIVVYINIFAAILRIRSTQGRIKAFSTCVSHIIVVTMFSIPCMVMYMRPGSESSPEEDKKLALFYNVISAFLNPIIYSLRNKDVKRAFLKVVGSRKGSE
# Procedure, shortened: as §1
# [4] = target: T4, UniProt L7N210
# T4 sequence (whole entry): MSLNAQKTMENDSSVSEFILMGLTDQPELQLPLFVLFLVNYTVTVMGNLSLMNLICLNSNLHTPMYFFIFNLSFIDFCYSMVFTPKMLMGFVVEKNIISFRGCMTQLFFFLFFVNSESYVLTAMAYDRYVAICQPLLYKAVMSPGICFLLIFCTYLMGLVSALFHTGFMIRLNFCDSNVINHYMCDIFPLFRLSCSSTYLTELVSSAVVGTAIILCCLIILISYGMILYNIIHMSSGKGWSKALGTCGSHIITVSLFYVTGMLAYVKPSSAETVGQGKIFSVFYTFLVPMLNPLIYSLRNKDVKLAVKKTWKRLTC
# Procedure, shortened: as §1
# [5] = target: T5, UniProt E9Q9Z6
# T5 sequence (whole entry): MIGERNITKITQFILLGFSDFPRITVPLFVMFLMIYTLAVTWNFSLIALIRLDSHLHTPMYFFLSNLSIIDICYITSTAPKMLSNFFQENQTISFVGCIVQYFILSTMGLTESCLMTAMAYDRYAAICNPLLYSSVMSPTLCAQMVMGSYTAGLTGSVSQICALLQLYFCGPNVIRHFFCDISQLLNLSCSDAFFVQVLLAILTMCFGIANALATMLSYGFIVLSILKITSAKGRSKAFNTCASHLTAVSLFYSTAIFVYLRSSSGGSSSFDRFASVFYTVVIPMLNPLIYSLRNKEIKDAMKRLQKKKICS
# Procedure, shortened: as §1
# [6] = target: UniProt E9Q891
# Procedure, shortened: as §1
# [7] = target: UniProt K7N5T5
# Procedure, shortened: as §1
# [8] = target: UniProt L7N1Y8
# Procedure, shortened: as §1
# [9] = target: UniProt E9QAT7
# Procedure, shortened: as §1
# [10] = target: UniProt L7N0P5
# Procedure, shortened: as §1
smiles,measurement,setting,value
CCCCCCCCC=O,odorant receptor agonist call,[1],inactive
same,odorant receptor agonist call,[2],inactive
same,odorant receptor agonist call,[3],inactive
same,odorant receptor agonist call,[4],inactive
CC1CCC(C(C)C)C(O)C1 (centres undefined),odorant receptor agonist call,[3],inactive
CCCCO,odorant receptor agonist call,[1],inactive
same,odorant receptor agonist call,[3],inactive
same,odorant receptor agonist call,[4],inactive
C=CC(C)(O)CCC=C(C)C (centres undefined),odorant receptor agonist call,[1],inactive
same,odorant receptor agonist call,[3],inactive
same,odorant receptor agonist call,[4],inactive
COC(=O)c1ccccc1O,odorant receptor agonist call,[1],inactive
same,odorant receptor agonist call,[3],inactive
same,odorant receptor agonist call,[4],inactive
CC(=O)C(C)=O,odorant receptor agonist call,[1],inactive
same,odorant receptor agonist call,[3],inactive
same,odorant receptor agonist call,[4],inactive
C=CCc1ccc(O)c(OC)c1,odorant receptor agonist call,[1],inactive
same,odorant receptor agonist call,[3],inactive
same,odorant receptor agonist call,[4],inactive
c1cnccn1,odorant receptor agonist call,[1],inactive
same,odorant receptor agonist call,[3],inactive
same,odorant receptor agonist call,[4],inactive
CCCCCC(=O)O,odorant receptor agonist call,[1],inactive
same,odorant receptor agonist call,[2],inactive
same,odorant receptor agonist call,[3],inactive
same,odorant receptor agonist call,[4],inactive
CCCCCCC=O,odorant receptor agonist call,[1],inactive
same,odorant receptor agonist call,[2],inactive
same,odorant receptor agonist call,[3],inactive
same,odorant receptor agonist call,[4],inactive
CCCCCCCCCCC=O,odorant receptor agonist call,[3],inactive
CCCCCCCC=O,odorant receptor agonist call,[1],inactive
same,odorant receptor agonist call,[2],inactive
same,odorant receptor agonist call,[3],inactive
same,odorant receptor agonist call,[4],inactive
CC12CCC(CC1)C(C)(C)O2,odorant receptor agonist call,[1],inactive
same,odorant receptor agonist call,[3],inactive
same,odorant receptor agonist call,[4],inactive
CCCCCC(C)=O,odorant receptor agonist call,[1],inactive
same,odorant receptor agonist call,[2],inactive
same,odorant receptor agonist call,[3],inactive
same,odorant receptor agonist call,[4],inactive
O=C1CCCCCCCCCCCCCCO1,odorant receptor agonist call,[1],inactive
same,odorant receptor agonist call,[5],active
same,odorant receptor agonist call,[3],inactive
same,odorant receptor agonist call,[4],inactive
CCCCCCCCCC=O,odorant receptor agonist call,[1],inactive
same,odorant receptor agonist call,[2],inactive
same,odorant receptor agonist call,[3],inactive
same,odorant receptor agonist call,[4],inactive
CC(=O)OC1CC2CCC1(C)C2(C)C (centres undefined),odorant receptor agonist call,[1],inactive
same,odorant receptor agonist call,[3],inactive
same,odorant receptor agonist call,[4],inactive
O=C1CCCCC1,odorant receptor agonist call,[5],inactive
same,odorant receptor agonist call,[2],inactive
same,odorant receptor agonist call,[3],inactive
same,odorant receptor agonist call,[4],inactive
CC(C)=CCCC(C)=CC=O,odorant receptor agonist call,[1],inactive
same,odorant receptor agonist call,[3],inactive
same,odorant receptor agonist call,[4],inactive
CC(C)(O)CCCC1=CCC(C=O)CC1 (centres undefined),odorant receptor agonist call,[1],inactive
same,odorant receptor agonist call,[2],inactive
same,odorant receptor agonist call,[3],inactive
same,odorant receptor agonist call,[4],inactive
C=C(C)C1CC=C(C)C(=O)C1 (centres undefined),odorant receptor agonist call,[1],inactive
same,odorant receptor agonist call,[6],active
same,odorant receptor agonist call,[7],active
same,odorant receptor agonist call,[2],inactive
same,odorant receptor agonist call,[3],inactive
same,odorant receptor agonist call,[8],active
same,odorant receptor agonist call,[4],inactive
O=C1CCCCCCCCCCCC(=O)OCCO1,odorant receptor agonist call,[5],active
COc1ccccc1O,odorant receptor agonist call,[1],inactive
same,odorant receptor agonist call,[3],inactive
same,odorant receptor agonist call,[4],inactive
CC(C)CC(=O)O,odorant receptor agonist call,[1],inactive
same,odorant receptor agonist call,[3],inactive
same,odorant receptor agonist call,[4],inactive
CCCC(=O)O,odorant receptor agonist call,[3],inactive
C=CCc1ccc(OC)c(OC)c1,odorant receptor agonist call,[1],inactive
same,odorant receptor agonist call,[9],active
same,odorant receptor agonist call,[3],inactive
same,odorant receptor agonist call,[10],active
same,odorant receptor agonist call,[4],active
CC1=CCC(C(C)(C)O)CC1 (centres undefined),odorant receptor agonist call,[3],inactive
CC(=O)c1ccccc1,odorant receptor agonist call,[1],inactive
same,odorant receptor agonist call,[6],active
same,odorant receptor agonist call,[7],inactive
same,odorant receptor agonist call,[2],inactive
same,odorant receptor agonist call,[3],inactive
same,odorant receptor agonist call,[8],active
same,odorant receptor agonist call,[4],active
COc1cc(C=O)ccc1O,odorant receptor agonist call,[1],inactive
same,odorant receptor agonist call,[3],inactive
same,odorant receptor agonist call,[4],active
CC1COCc2cc3c(cc21)C(C)(C)C(C)C3(C)C (centres undefined),odorant receptor agonist call,[1],inactive
same,odorant receptor agonist call,[5],active
same,odorant receptor agonist call,[3],inactive
same,odorant receptor agonist call,[4],inactive
CCCCCOC(C)=O,odorant receptor agonist call,[1],inactive
same,odorant receptor agonist call,[3],inactive
same,odorant receptor agonist call,[4],inactive
CC(C)C=O,odorant receptor agonist call,[1],inactive
same,odorant receptor agonist call,[3],inactive
same,odorant receptor agonist call,[4],inactive
CC12CCC(C1)C(C)(C)C2=O (centres undefined),odorant receptor agonist call,[2],inactive
same,odorant receptor agonist call,[3],inactive
same,odorant receptor agonist call,[4],inactive

# Random excerpt: four entries already listed
smiles,measurement,setting,value
C=C(C)C1CC=C(C)C(=O)C1 (centres undefined),odorant receptor agonist call,[3],inactive
CC(C)CC(=O)O,odorant receptor agonist call,[3],inactive
C=C(C)C1CC=C(C)C(=O)C1 (centres undefined),odorant receptor agonist call,[8],active
CCCCCC(C)=O,odorant receptor agonist call,[4],inactive
